Assay results as given in PubChem BioAssay (EPA / NIEHS).
This list was built around the results that the source calls inconclusive (neither active nor inactive); the mix of calls is not that of the screen. For part of these data: Where the call is inconclusive, the potency comes from a doubtful curve fit. Activity calls are given as the source filed them. Rule for the calls: active = hit-call score of the fitted dose curve at least 0.9, where 1 is the maximum; inconclusive = response in the unintended direction; inactive = score below 0.9.

By UniProt entry, the sequences of proteins in these tests, tags left out. Where a name states a change or a piece, a line headed by the entry shows the natural chain unless it says otherwise.
UniProt P21709: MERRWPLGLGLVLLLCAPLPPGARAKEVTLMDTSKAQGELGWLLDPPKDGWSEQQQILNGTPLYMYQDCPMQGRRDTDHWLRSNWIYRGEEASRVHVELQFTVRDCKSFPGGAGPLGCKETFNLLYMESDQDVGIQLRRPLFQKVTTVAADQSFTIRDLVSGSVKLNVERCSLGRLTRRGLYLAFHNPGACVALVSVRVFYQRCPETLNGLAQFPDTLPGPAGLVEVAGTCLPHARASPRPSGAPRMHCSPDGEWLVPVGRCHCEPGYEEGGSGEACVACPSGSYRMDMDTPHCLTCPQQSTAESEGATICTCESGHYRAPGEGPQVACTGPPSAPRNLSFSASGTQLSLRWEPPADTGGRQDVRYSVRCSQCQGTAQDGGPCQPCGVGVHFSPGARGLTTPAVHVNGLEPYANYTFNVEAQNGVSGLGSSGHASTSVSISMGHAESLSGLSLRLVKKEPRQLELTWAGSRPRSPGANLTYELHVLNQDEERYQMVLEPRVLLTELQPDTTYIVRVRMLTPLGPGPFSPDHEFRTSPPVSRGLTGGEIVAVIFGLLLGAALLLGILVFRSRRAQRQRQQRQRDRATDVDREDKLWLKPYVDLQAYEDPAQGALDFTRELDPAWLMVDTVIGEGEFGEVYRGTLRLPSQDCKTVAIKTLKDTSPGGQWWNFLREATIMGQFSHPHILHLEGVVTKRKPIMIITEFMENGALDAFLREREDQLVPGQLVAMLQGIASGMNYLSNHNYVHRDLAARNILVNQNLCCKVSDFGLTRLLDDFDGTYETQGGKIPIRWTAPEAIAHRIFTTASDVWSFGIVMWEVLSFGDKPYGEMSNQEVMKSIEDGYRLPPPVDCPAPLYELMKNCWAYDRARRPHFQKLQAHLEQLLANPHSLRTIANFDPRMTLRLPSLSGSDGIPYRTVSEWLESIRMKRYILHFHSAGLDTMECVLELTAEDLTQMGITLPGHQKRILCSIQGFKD
UniProt P17948, whole entry, looked up: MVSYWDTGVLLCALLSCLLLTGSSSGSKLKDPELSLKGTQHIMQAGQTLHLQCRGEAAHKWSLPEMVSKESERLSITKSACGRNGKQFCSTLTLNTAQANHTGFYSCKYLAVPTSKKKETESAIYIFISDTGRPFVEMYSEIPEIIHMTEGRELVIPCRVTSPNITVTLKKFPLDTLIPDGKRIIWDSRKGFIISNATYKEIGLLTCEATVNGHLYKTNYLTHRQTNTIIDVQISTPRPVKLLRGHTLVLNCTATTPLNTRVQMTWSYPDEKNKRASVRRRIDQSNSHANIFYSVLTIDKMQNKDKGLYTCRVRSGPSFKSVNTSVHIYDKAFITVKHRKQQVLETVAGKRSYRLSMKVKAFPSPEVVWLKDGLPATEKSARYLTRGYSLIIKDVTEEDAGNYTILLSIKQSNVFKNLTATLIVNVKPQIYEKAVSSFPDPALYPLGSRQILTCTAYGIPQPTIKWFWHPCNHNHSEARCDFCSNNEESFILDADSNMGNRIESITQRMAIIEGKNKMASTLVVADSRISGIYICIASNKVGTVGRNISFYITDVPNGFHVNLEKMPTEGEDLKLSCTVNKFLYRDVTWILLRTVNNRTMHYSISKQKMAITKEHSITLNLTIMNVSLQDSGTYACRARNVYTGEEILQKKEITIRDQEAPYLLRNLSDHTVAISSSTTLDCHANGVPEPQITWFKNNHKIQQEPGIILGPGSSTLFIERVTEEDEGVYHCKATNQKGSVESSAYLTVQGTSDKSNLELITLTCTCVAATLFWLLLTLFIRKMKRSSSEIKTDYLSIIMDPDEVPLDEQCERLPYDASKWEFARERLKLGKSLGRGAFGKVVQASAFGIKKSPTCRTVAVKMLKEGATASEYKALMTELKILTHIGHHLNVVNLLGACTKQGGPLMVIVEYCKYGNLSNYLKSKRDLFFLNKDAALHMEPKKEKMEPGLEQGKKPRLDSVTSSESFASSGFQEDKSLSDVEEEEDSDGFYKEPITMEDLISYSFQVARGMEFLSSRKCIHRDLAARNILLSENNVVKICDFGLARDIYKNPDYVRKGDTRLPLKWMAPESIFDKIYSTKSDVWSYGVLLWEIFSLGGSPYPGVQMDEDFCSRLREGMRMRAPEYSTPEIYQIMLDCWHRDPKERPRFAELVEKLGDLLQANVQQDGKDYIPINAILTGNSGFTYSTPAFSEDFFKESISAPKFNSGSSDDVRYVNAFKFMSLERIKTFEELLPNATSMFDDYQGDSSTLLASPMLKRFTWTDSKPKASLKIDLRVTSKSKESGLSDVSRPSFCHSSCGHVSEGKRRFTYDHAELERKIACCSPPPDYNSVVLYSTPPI
UniProt P49884, whole entry, looked up: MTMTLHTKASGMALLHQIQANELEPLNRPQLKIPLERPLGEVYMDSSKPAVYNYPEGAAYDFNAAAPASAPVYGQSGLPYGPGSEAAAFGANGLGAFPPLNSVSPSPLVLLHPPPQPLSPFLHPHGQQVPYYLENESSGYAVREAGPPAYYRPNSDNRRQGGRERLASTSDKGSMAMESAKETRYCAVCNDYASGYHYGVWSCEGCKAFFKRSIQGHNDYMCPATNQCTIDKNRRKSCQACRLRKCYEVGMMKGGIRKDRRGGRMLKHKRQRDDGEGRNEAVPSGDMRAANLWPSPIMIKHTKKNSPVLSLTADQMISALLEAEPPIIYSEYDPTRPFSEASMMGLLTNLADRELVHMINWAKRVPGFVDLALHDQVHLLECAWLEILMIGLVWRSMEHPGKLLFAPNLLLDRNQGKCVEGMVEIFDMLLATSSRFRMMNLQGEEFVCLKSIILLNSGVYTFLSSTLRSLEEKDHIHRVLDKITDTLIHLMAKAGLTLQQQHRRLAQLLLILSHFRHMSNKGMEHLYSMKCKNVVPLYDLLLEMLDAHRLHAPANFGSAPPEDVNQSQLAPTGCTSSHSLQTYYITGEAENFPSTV
UniProt P29350: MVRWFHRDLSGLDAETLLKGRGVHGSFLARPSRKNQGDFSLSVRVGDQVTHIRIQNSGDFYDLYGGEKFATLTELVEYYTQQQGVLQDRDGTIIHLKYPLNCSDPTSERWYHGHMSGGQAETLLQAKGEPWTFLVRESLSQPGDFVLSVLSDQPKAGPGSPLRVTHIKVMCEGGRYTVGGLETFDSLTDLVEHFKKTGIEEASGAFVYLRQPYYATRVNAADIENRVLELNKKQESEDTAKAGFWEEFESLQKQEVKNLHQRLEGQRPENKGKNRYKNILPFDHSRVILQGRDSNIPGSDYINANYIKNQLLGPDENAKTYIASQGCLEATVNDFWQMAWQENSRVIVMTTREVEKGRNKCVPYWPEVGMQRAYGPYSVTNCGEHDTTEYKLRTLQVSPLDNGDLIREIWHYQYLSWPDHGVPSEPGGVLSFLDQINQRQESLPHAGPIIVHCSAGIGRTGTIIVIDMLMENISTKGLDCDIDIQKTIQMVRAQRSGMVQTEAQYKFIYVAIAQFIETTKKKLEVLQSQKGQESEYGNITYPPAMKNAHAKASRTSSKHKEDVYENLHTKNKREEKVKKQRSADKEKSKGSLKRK
UniProt Q96RI1: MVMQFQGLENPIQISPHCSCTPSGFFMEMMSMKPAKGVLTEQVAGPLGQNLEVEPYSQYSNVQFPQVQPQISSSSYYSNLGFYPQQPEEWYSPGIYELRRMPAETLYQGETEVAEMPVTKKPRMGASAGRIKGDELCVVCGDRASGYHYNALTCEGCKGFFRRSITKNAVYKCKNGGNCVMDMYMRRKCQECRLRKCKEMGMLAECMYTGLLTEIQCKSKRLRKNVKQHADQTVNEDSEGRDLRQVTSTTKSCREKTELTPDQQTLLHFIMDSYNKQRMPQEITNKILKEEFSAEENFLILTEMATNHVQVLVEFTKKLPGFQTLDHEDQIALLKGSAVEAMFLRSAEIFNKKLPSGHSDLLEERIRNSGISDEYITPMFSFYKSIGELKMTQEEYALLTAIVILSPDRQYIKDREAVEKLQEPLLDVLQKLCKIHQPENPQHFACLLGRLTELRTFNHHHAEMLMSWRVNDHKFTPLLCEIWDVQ
UniProt Q01717: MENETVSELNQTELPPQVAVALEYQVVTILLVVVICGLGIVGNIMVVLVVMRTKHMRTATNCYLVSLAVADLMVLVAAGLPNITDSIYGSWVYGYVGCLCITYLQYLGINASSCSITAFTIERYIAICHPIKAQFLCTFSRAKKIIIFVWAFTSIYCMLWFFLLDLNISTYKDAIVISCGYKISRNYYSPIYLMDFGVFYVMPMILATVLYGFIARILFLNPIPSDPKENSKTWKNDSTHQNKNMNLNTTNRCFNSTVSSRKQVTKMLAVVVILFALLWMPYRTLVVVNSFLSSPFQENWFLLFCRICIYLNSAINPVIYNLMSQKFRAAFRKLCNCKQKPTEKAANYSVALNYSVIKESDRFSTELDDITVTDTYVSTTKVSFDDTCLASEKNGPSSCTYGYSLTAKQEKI
UniProt P37231: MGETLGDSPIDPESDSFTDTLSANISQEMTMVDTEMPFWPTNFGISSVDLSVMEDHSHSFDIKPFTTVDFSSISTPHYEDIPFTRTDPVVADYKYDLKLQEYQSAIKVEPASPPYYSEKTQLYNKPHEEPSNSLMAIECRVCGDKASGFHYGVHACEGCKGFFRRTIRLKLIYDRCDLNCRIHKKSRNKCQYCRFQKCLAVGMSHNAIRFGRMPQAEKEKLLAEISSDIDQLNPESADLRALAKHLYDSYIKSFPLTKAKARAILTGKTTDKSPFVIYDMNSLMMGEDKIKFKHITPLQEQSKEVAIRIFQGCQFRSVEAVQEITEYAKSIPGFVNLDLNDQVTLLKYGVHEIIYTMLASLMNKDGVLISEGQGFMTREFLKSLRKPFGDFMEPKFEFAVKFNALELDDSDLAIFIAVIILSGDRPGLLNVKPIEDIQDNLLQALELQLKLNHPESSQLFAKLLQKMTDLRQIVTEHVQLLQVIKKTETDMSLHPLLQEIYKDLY
UniProt Q92731, whole entry, looked up: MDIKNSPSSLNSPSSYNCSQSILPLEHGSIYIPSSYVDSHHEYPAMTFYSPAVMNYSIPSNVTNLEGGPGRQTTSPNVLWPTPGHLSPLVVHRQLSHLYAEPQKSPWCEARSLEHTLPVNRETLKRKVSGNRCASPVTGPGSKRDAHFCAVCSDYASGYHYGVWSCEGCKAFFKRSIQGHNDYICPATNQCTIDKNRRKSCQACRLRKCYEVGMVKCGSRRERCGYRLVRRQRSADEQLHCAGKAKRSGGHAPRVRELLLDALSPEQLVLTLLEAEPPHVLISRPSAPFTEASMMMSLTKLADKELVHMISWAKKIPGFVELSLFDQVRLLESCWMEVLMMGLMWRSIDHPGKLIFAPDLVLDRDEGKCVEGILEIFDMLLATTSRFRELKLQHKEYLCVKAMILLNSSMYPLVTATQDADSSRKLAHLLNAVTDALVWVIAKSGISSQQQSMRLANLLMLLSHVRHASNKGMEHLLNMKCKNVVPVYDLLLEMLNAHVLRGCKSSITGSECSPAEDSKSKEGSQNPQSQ
UniProt P05979, whole entry, looked up: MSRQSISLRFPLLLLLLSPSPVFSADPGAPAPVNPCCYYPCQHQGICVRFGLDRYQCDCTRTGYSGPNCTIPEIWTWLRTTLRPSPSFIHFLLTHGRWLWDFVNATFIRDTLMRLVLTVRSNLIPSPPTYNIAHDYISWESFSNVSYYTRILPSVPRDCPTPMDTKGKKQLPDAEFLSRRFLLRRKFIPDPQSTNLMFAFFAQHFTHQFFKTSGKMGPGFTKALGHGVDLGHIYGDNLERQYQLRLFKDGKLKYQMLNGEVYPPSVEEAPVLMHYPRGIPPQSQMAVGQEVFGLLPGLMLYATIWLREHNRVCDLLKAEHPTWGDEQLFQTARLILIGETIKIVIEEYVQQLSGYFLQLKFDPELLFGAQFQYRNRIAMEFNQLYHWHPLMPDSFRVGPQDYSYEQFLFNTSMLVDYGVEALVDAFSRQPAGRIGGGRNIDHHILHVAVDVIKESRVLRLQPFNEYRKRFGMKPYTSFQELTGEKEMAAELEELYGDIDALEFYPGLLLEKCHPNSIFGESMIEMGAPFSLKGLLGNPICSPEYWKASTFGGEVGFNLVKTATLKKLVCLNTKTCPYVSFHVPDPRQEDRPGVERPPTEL
UniProt P11474: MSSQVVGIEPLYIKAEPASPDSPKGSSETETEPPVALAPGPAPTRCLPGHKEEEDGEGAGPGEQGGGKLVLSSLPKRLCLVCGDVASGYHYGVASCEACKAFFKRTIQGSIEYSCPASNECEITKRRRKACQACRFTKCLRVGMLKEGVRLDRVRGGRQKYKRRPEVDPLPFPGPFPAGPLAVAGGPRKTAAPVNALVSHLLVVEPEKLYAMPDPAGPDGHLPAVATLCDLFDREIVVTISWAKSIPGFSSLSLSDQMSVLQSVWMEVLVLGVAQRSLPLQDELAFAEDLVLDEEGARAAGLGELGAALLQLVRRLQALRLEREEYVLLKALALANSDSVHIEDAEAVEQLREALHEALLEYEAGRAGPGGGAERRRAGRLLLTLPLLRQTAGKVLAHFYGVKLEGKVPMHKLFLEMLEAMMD

Tests used:
[1] = target: human Ephrin type-A Receptor 1 (EphA1), EPHA1 (gene 2041) (UniProt P21709); assay: NVS_ENZ_hEphA1: NovaScreen (NVS) Enzymatic Assay for human Ephrin type-A Receptor 1 (EphA1) (AID 2283158);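 note: activity is signal loss versus DMSO meaning EphA1 kinase inhibition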
Summary of the method: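 Cell-free kinase activity with recombinant protein, 1 hour after dosing; product separated by electrophoretic mobility shift, fluorescence read. Primary screen at 25 uM in duplicate; hits run as concentration-response up to 50 uM, relative to DMSO.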

[2] = target: human Vascular Endothelial Growth Factor Receptor 1 (VEGFR1), FLT1 (gene 2321) (UniProt P17948); assay: NVS_ENZ_hVEGFR1: NovaScreen (NVS) Enzymatic Assay for human Vascular Endothelial Growth Factor Receptor 1 (VEGFR1) (AID 2283226)
Summary of the method: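 Cell-free assay of recombinant human VEGFR1 kinase with substrate, measured 1 h after dosing; fluorescence with electrophoretic mobility-shift separation of substrate and product, referenced to DMSO; primary screen at 25 uM in duplicate, actives then run in concentration series.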

[3] = CCTE_Harrill_HTTr_CellCount_MCF7: CCTE's Cell Proliferation Assessment for the High-Throughput Transcriptomics (HTTr) Platform, Harrill Lab (AID 2284012);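 note: count of Hoechst-stained nuclei per well by high-content imaging in MCF-7 cells; cells exposed to compound for six hours; intended direction is loss of nuclei count meaning fewer cells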
Summary of the method: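 Chemicals in eight-point dilution series are added to MCF-7 cells for six hours, nuclei are stained with Hoechst and imaged, and per-well nuclei counts are fitted in both directions relative to DMSO controls.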

[4] = target: bovine Estrogen Receptor (ER), ESR1 (gene 407238) (UniProt P49884); assay: NVS_NR_bER: NovaScreen (NVS) Nuclear Receptor Binding Assay for bovine Estrogen Receptor (ER) (AID 2283345);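 note: actives lower the bound radioligand count which means they displace the ER ligand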
Summary of the method: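 Scintillation counting of displaced radioligand gave the readout; bovine uterine membrane extract supplied the receptor. Measured 18 h post-dose, normalized to DMSO baseline. Single 25 uM duplicate screen preceded concentration-response follow-up.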

[5] = target: human Protein Tyrosine Phosphatase Non-receptor Type 9 (PTPN9), PTPN9 (gene 5780) (UniProt P43378); assay: NVS_ENZ_hPTPN9: NovaScreen (NVS) Enzymatic Assay for human Protein Tyrosine Phosphatase Non-receptor Type 9 (PTPN9) (AID 2283209)
Summary of the method: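 Sf9-expressed enzyme in a cell-free assay, fluorescence read 1.33 h after dosing with mobility-shift separation of substrate and product. Tested at 25 uM in duplicate, then up to 50 uM; signal loss versus DMSO.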

[6] = target: human Protein Tyrosine Phosphatase Non-receptor Type 6 (PTPN6), PTPN6 (gene 5777) (UniProt P29350); assay: NVS_ENZ_hPTPN6: NovaScreen (NVS) Enzymatic Assay for human Protein Tyrosine Phosphatase Non-receptor Type 6 (PTPN6) (AID 2283210)
Summary of the method: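 Cell-free assay with recombinant PTPN6 expressed in SF9 cells, fluorescent substrate, product separated from substrate by electrophoretic mobility shift; read 1.33 hours after dosing. Primary screen in duplicate at 25 uM, actives retested in concentration series; DMSO baseline.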

[7] = target: human Peroxisome Proliferator-activated Receptor alpha (PPARa), PPARA (gene 5465) (UniProt Q07869); assay: NVS_NR_hPPARa: NovaScreen (NVS) Nuclear Receptor Binding Assay for human Peroxisome Proliferator-activated Receptor alpha (PPARa) (AID 2283359);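 note: activity means loss of TR-FRET signal versus DMSO baseline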
Summary of the method: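 Cell-free TR-FRET binding assay with extracted PPARα protein, read 1 h after dosing. Primary screen in duplicate at 25 uM, with actives retested in concentration series. Loss of signal versus DMSO.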

[8] = target: Nuclear receptor subfamily 1 group I member 2 (Homo sapiens) (UniProt O75469); assay: NVS_NR_hPXR: NovaScreen (NVS) Nuclear Receptor Binding Assay for human Pregnane X Receptor (PXR) (AID 2283365);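 note: a drop in FRET signal versus DMSO baseline means the compound binds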
Summary of the method: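 Cell-free TR-FRET binding assay with extracted human PXR protein, read 2 h after dosing. Primary screen run in duplicate at 25 uM, actives followed in concentration series; loss of signal fitted against DMSO baseline.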

[9] = target: Bile acid receptor (Homo sapiens) (UniProt Q96RI1); assay: OT_FXR_FXRSRC1_0480: Odyssey Thera (OT) 8-hour HEK293T Protein-Complementation Assay for Farnesoid X receptor/SRC-1 Co-activator (AID 2283383)
Summary of the method: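 Human kidney HEK293T cells carried FXR/SRC-1 fragment-complementation constructs. Compounds were added and incubated 8 h. Reporter reassembly upon receptor–co-activator interaction was then quantified by fluorescence, with curves fitted in the positive direction relative to DMSO.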

[10] = ACEA_AR_agonist_AUC_viability: ACEA Biosciences xCELLigence Real-Time Cell Analysis on Androgen Receptor Agonism for Viability (AID 2283775);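 for AC50: viability read 80 hours after compound addition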
Summary of the method: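 Real-time impedance tracking of 22Rv1 growth, readings every 5 min for 5 h then hourly; area-under-curve viability endpoint at 80 hours, relative to DMSO. Compounds at eight concentrations, 1:4 steps, top 100 uM, n = 2.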

[11] = CCTE_Deisenroth_AIME_384WELL_CTox_Active: Cytotoxicity Assessment (CTOX) in CCTE's 384-well Estrogen Receptor Transactivation Assay with AIME metabolic competence (metabolism positive), Deisenroth Lab (AID 2284037);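 note: chemicals first conditioned 2 h by alginate-bound induced rat liver S9 before cells; activity means signal loss indicating cell death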
Summary of the method: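 Chemicals pre-incubated 2 hours with alginate-immobilised phenobarbital/beta-naphthoflavone-induced male Sprague Dawley rat liver S9, then conditioned medium applied 24 hour to VM7Luc4E2 cells. Viability by fluorogenic protease substrate; 10-point series 0.002 - 200 uM.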

[12] = CCTE_Deisenroth_AIME_384WELL_CTox_Inactive: Cytotoxicity Assessment (CTOX) in CCTE's 384-well Estrogen Receptor Transactivation Assay without AIME metabolic competence (metabolism negative), Deisenroth Lab (AID 2284039);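 note: cell viability via live-cell protease substrate cleaved to fluorescent probe; cells exposed 24 h to medium preincubated 2 h with alginate-water beads without S9; loss of fluorescence signal means loss of viability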
Summary of the method: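 Metabolism-negative arm: chemicals (10-point, 0.002 - 200 uM) preincubated 2 h with alginate-water lids, medium moved onto VM7Luc4E2 cells for 24 h. Fluorescent live-cell protease readout; bidirectional curve fit.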

[13] = target: rat Thyrotropin Releasing Hormone Receptor (TRH), Trhr (gene 25570) (UniProt Q01717); assay: NVS_GPCR_rTRH: NovaScreen (NVS) G Protein-Coupled Receptor Assay for rat Thyrotropin Releasing Hormone Receptor (TRH) (AID 2283329);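 note: hit means lower bound tracer signal versus DMSO baseline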
Summary of the method: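 Rat forebrain membrane prep, radioligand displacement, filter scintillation readout at 4 h. Single conc 25 uM, duplicate; actives retested as concentration series. DMSO = negative control/baseline.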

[14] = target: Peroxisome proliferator-activated receptor gamma (Homo sapiens) (UniProt P37231); assay: NVS_NR_hPPARg: NovaScreen (NVS) Nuclear Receptor Binding Assay for human Peroxisome Proliferator-activated Receptor gamma (PPARg) (AID 2283370)
Summary of the method: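 Cell-free fluorescence polarization binding to human PPARg protein, read 2 h after dosing. Primary screen in duplicate at 25 uM, actives followed in concentration series; loss of signal relative to DMSO scored.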

[15] = target: Estrogen receptor (Homo sapiens) + Estrogen receptor beta (Homo sapiens) (UniProt P03372+Q92731); assay: OT_ER_ERaERb_0480: Odyssey Thera (OT) 8-hour HEK293T Protein-Complementation Assay for Estrogen Receptor-alpha/-beta Heterodimer (AID 2283352)
Summary of the method: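 HEK293T protein-fragment complementation assay of ER-alpha/ER-beta LBD heterodimerisation, read 8 h after dosing. Mean nuclear/cytoplasmic fluorescence intensity measured by laser scanning cytometry; gain of signal fitted relative to DMSO.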

[16] = target: Bile acid receptor (Homo sapiens) (UniProt Q96RI1); assay: OT_FXR_FXRSRC1_1440: Odyssey Thera (OT) 24-hour HEK293T Protein-Complementation Assay for Farnesoid X receptor/SRC-1 Co-activator (AID 2283384)
Summary of the method: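 Compounds are applied to human kidney HEK293T cells expressing bait and prey fused to reporter protein fragments; after 24 h, reconstituted reporter fluorescence is measured. Activity is fitted as signal gain over DMSO.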

[17] = target: sheep Cyclooxygenase-1 (Cox1), PTGS1 (gene 443551) (UniProt P05979); assay: NVS_ENZ_oCOX1: NovaScreen (NVS) Enzymatic Assay for sheep Cyclooxygenase-1 (Cox1) (AID 2283239);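 note: actives reduce cyclooxygenase activity so potencies are for inhibitors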
Summary of the method: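 COX1 from ovine seminal vesicles, activity read colorimetrically about 0.66 h after dosing. Primary screen in duplicate at 25 uM; actives retested in concentration series; loss of signal fitted versus DMSO.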

[18] = ACEA_AR_antagonist_AUC_viability: ACEA Biosciences xCELLigence Real-Time Cell Analysis on Androgen Receptor Antagonism for Viability (AID 2283776);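 note: 22Rv1 human prostate cancer cells growing on impedance electrode plates; hits lower the growth signal relative to DMSO meaning cytotoxicity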
Summary of the method: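 22Rv1 prostate cells, continuous dosing up to 100 uM final (0.5% DMSO max), duplicate plates. Growth measured by impedance; AUC at 80 h, loss of signal vs DMSO.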

[19] = target: Steroid hormone receptor ERR1 (Homo sapiens) (UniProt P11474); assay: ATG_ERRa_TRANS: Attagene TRANS-FACTORIAL HepG2 Assay for human Estrogen-Related Receptor alpha (ERRa) (AID 2282971); conditions: HepG2 Attagene TRANS reporter, ERRa transactivation
Summary of the method: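 HepG2 cells transiently transfected with GAL4-UAS reporter units and chimeric NR-Gal4 constructs; after 24 hour compound incubation, reporter mRNA quantified by RT-PCR, fluorescent labelling and capillary electrophoresis, gain of signal versus DMSO.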

Cc1ccncc1
AC50 [1]: inconclusive: 6.21 µM
AC50 [2]: inconclusive: 6.47 µM
AC50 [3]: inconclusive: 50 µM

O=C(c1ccccc1)c1ccc(O)c(O)c1O
outcome [4]: inactive

CCc1ccc(C(c2ccc(CC)cc2)C(Cl)Cl)cc1
AC50 [2]: inconclusive: 5.84 µM

Cc1ncc([C@@H](CCCCCCc2ccc3c(n2)NCCC3)CC(=O)O)cn1
outcome [5]: inactive
AC50 [6]: inconclusive: 0.233 µM
outcome [7]: inactive
AC50 [8]: inconclusive: 10.7 µM
AC50 [9]: inconclusive: 0.0949 µM
AC50 [10]: active: 0.00386 µM
AC50 [3]: active: 0.321 µM

COc1cc2c(c(OC)c1OC)-c1ccc(OC)c(=O)cc1[C@@H](NC(C)=O)CC2
AC50 [11]: active: 19800 nM
AC50 [12]: active: 19.8 µM

CC=C(C)C(C)=O
AC50 [2]: inconclusive: 4.96 µM

C[Si]1(C)O[Si](C)(C)O[Si](C)(C)O[Si](C)(C)O[Si](C)(C)O1
AC50 [13]: inconclusive: 0.0657 µM
AC50 [8]: inconclusive: 25 µM
outcome [14]: inactive

COC(=O)CCCCC(=O)OC
AC50 [5]: inconclusive: 25 µM
AC50 [7]: inconclusive: 25 µM
AC50 [9]: inconclusive: 12.8 µM
AC50 [11]: inconclusive: 0.2 nM
AC50 [12]: inconclusive: 100 µM

NCCO
AC50 [5]: inconclusive: 25 µM
AC50 [6]: inconclusive: 25 µM
outcome [2]: inactive
AC50 [8]: inconclusive: 25 µM

CN1C(=O)N(c2ccccc2Br)Cc2cnc(Nc3ccc4c(c3)OCC(CO)O4)nc21 (stereo not given)
AC50 [13]: inconclusive: 7.3 µM
AC50 [4]: active: 0.447 µM
outcome [15]: inactive
AC50 [14]: active: 25 µM
AC50 [16]: active: 0.54 µM

C/C=C/C=C/CCCCCCCO
AC50 [8]: active: 25 µM
AC50 [16]: inconclusive: 90.1 µM
outcome [11]: inactive
AC50 [12]: active: 151 µM

Nc1cccc(N)n1
outcome [2]: inactive

CCCCNS(=O)(=O)c1ccccc1
outcome [13]: inactive
AC50 [4]: inconclusive: 25 µM
outcome [10]: inactive
AC50 [12]: inconclusive: 100 µM

CCCCCCCCCC[N+](C)(CCCCCCCCCC)CCC[Si](OC)(OC)OC
AC50 [15]: inconclusive: 90.6 µM
AC50 [7]: active: 8.29 µM
AC50 [8]: active: 4.21 µM
AC50 [11]: active: 49400 nM
AC50 [12]: active: 100 µM

CCCCCCCC=O
outcome [15]: inactive
AC50 [14]: inconclusive: 25 µM
AC50 [11]: inconclusive: 0.2 nM
AC50 [12]: inconclusive: 0.0002 µM

O=C1OC2(c3ccc(O)cc3Oc3cc(O)ccc32)c2ccccc21
AC50 [17]: active: 18.2 µM
AC50 [4]: active: 15.8 µM
AC50 [15]: inconclusive: 0.135 µM
AC50 [9]: active: 13.1 µM
outcome [18]: inactive
AC50 [11]: inconclusive: 0.0309 nM
AC50 [12]: inconclusive: 0.000153 µM

CCCCCCCO
AC50 [13]: inconclusive: 0.417 µM
AC50 [14]: inconclusive: 25 µM
AC50 [10]: inconclusive: 0.263 µM
outcome [3]: inactive

CC[C@H](C)C(=O)O[C@H]1C[C@H](O)C=C2C=C[C@H](C)[C@H](CC[C@@H](O)C[C@@H](O)CC(=O)O)[C@H]21
AC50 [6]: inconclusive: 25 µM
AC50 [2]: inconclusive: 25 µM
outcome [17]: inactive
AC50 [14]: inconclusive: 0.324 µM
AC50 [3]: inconclusive: 25 µM

CC1(C)C(=O)N(Cl)C(=O)N1Cl
outcome [6]: inactive
AC50 [10]: inconclusive: 9.92 µM
AC50 [18]: inconclusive: 10.2 µM
outcome [3]: inactive

CCC(C)(O)CCCC(C)C (stereo not given)
outcome [9]: inactive
AC50 [11]: inconclusive: 1.14 nM
AC50 [12]: inconclusive: 0.000201 µM

CCNC(=S)NCC
AC50 [13]: inconclusive: 0.174 µM
AC50 [4]: inconclusive: 1.54 µM

CC(=O)CCC(=O)O
AC50 [3]: inconclusive: 50 µM

Cc1c(N(C)C)c(=O)n(-c2ccccc2)n1C
outcome [3]: inactive

CCCCCC(=O)OCC
AC50 [9]: inconclusive: 50 µM
outcome [16]: inactive
AC50 [10]: inconclusive: 0.21 µM
AC50 [3]: inconclusive: 50 µM
outcome [11]: inactive

CCCO
AC50 [10]: inconclusive: 16.6 µM
AC50 [18]: inconclusive: 0.502 µM
AC50 [3]: inconclusive: 50 µM
AC50 [11]: inconclusive: 0.2 nM
AC50 [12]: inconclusive: 0.0002 µM

Cc1cc(N)n(-c2ccccc2)n1
outcome [1]: inactive

OCCC(F)(F)C(F)(F)C(F)(F)C(F)(F)F
outcome [19]: inactive

CCCCCCCC(=O)OCCCCCC
outcome [19]: inactive
